Assay results as given in article doi:10.1101/059964.

Protein sequences, listed by entry. Tags and fused reporters are not part of them.
UniProt Q06587: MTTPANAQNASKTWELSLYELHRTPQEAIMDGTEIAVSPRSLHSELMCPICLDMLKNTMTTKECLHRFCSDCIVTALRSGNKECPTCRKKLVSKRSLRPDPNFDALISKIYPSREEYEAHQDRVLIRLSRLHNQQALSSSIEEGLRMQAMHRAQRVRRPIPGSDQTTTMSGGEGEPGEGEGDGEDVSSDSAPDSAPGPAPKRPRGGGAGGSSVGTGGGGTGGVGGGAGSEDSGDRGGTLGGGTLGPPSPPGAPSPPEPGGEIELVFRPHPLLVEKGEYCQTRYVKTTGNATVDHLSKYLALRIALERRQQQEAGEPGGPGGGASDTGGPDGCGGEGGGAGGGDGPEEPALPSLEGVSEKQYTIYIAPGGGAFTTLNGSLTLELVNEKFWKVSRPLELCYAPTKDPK
UniProt Q99496: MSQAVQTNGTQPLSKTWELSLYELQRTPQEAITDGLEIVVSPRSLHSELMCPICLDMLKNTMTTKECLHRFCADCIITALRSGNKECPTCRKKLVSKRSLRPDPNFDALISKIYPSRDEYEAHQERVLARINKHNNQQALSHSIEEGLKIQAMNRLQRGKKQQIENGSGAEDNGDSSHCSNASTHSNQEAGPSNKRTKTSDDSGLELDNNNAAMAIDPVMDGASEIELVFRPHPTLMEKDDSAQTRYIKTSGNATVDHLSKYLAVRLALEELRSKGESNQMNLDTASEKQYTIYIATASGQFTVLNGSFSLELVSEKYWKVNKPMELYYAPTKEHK
UniProt Q86SE9: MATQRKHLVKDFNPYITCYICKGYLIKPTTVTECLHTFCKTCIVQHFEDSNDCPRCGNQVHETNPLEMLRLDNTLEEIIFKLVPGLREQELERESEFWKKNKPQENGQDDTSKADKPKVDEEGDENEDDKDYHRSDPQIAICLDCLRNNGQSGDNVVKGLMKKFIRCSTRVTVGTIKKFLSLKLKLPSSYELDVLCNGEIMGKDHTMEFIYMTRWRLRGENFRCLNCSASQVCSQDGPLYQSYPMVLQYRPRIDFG

T1: YAF2 (human) (UniProt Q8IY57)
T1 sequence: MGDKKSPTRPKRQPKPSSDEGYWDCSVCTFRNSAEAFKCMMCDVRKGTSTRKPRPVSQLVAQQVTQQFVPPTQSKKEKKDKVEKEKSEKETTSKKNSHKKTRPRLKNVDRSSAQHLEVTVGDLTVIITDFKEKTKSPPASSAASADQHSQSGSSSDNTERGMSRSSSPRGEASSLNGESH

T2: DCAF7 (human) (UniProt P61962)
T2 sequence: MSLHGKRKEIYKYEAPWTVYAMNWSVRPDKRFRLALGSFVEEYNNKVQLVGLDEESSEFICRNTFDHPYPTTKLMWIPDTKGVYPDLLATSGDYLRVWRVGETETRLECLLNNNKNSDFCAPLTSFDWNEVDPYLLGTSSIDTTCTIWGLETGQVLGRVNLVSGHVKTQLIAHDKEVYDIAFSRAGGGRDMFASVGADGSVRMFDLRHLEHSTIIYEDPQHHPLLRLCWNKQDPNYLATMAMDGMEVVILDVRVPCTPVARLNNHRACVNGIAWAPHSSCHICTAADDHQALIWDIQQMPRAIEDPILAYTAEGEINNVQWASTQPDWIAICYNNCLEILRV

T3: PCGF3 (human) (UniProt Q3KNV8)
T3 sequence: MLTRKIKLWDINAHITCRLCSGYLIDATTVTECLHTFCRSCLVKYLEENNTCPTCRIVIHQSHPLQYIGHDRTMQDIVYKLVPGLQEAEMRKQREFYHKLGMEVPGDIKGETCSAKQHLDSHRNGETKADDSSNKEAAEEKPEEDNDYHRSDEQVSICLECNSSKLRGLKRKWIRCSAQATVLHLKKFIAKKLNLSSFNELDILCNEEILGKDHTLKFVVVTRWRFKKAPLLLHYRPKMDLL

T4: RYBP (human) (UniProt Q8N488)
T4 sequence: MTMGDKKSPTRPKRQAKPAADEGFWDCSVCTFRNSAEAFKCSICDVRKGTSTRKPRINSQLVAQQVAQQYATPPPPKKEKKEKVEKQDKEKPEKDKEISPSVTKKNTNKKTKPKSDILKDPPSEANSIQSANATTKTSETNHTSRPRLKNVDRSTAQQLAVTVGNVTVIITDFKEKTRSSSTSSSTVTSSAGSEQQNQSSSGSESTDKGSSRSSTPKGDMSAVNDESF


Tests used:
Test in all cases: affinity purification with mass spectrometry
[1] = molecular target: RING1 (human) (UniProt Q06587)
[2] = molecular target: RING2 (human) (UniProt Q99496)
[3] = molecular target: T1, YAF2 (human)
[4] = molecular target: T2, DCAF7 (human)
[5] = molecular target: T3, PCGF3 (human)
[6] = molecular target: PCGF5 (human) (UniProt Q86SE9)
[7] = molecular target: T4, RYBP (human)

| Binder | binding [1] | binding [2] | binding [3] | binding [4] | binding [5] | binding [6] | binding [7] |
| --- | --- | --- | --- | --- | --- | --- | --- |
| AUTS2 (protein, UniProt Q8WXX7 1-1259) MDGPTRGHGLRKKRRSRSQRDRERRSRGGLGAGAAGGGGAGRTRALSLASSSGSDKEDNGKPPSSAPSRPRPPRRKRRESTSAEEDIIDGFAMTSFVTFEALEKDVALKPQERVEKRQTPLTKKKREALTNGLSFHSKKSRLSHPHHYSSDRENDRNLCQHLGKRKKMPKALRQLKPGQNSCRDSDSESASGESKGFHRSSSRERLSDSSAPSSLGTGYFCDSDSDQEEKASDASSEKLFNTVIVNKDPELGVGTLPEHDSQDAGPIVPKISGLERSQEKSQDCCKEPIFEPVVLKDPCPQVAQPIPQPQTEPQLRAPSPDPDLVQRTEAPPQPPPLSTQPPQGPPEAQLQPAPQPQVQRPPRPQSPTQLLHQNLPPVQAHPSAQSLSQPLSAYNSSSLSLNSLSSSRSSTPAKTQPAPPHISHHPSASPFPLSLPNHSPLHSFTPTLQPPAHSHHPNMFAPPTALPPPPPLTSGSLQVAGHPAGSTYSEQDILRQELNTRFLASQSADRGASLGPPPYLRTEFHQHQHQHQHTHQHTHQHTFTPFPHAIPPTAIMPTPAPPMFDKYPTKVDPFYRHSLFHSYPPAVSGIPPMIPPTGPFGSLQGAFQPKTSNPIDVAARPGTVPHTLLQKDPRLTDPFRPMLRKPGKWCAMHVHIAWQIYHHQQKVKKQMQSDPHKLDFGLKPEFLSRPPGPSLFGAIHHPHDLARPSTLFSAAGAAHPTGTPFGPPPHHSNFLNPAAHLEPFNRPSTFTGLAAVGGNAFGGLGNPSVTPNSMFGHKDGPSVQNFSNPHEPWNRLHRTPPSFPTPPPWLKPGELERSASAAAHDRDRDVDKRDSSVSKDDKERESVEKRHSSHPSPAPVLPVNALGHTRSSTEQIRAHLNTEAREKDKPKERERDHSESRKDLAADEHKAKEGHLPEKDGHGHEGRAAGEEAKQLARVPSPYVRTPVVESARPNSTSSREAEPRKGEPAYENPKKSSEVKVKEERKEDHDLPPEAPQTHRASEPPPPNSSSSVHPGPLASMPMTVGVTGIHPMNSISSLDRTRMMTPFMGISPLPGGERFPYPSFHWDPIRDPLRDPYRELDIHRRDPLGRDFLLRNDPLHRLSTPRLYEADRSFRDREPHDYSHHHHHHHHPLSVDPRREHERGGHLDERERLHMLREDYEHTRLHSVHPASLDGHLPHPSLITPGLPSMHYPRISPTAGNQNGLLNKTPPTAALSAPPPLISTLGGRPVSPRRTTPLSAEIRERPPSHTLKDIEAR | binds | binds | binds | binds | binds | binds | binds |
| PCGF6 (protein, UniProt Q9BYE7 1-350) MEGVAVVTAGSVGAAKTEGAAALPPPPPVSPPALTPAPAAGEEGPAPLSETGAPGCSGSRPPELEPERSLGRFRGRFEDEDEELEEEEELEEEEEEEEEDMSHFSLRLEGGRQDSEDEEERLINLSELTPYILCSICKGYLIDATTITECLHTFCKSCIVRHFYYSNRCPKCNIVVHQTQPLYNIRLDRQLQDIVYKLVINLEEREKKQMHDFYKERGLEVPKPAVPQPVPSSKGRSKKVLESVFRIPPELDMSLLLEFIGANEGTGHFKPLEKKFVRVSGEATIGHVEKFLRRKMGLDPACQVDIICGDHLLEQYQTLREIRRAIGDAAMQDGLLVLHYGLVVSPLKIT |  | binds | binds |  |  |  | binds |
| PCGF2 (protein, UniProt P35227 1-344) MHRTTRIKITELNPHLMCALCGGYFIDATTIVECLHSFCKTCIVRYLETNKYCPMCDVQVHKTRPLLSIRSDKTLQDIVYKLVPGLFKDEMKRRRDFYAAYPLTEVPNGSNEDRGEVLEQEKGALSDDEIVSLSIEFYEGARDRDEKKGPLENGDGDKEKTGVRFLRCPAAMTVMHLAKFLRNKMDVPSKYKVEVLYEDEPLKEYYTLMDIAYIYPWRRNGPLPLKYRVQPACKRLTLATVPTPSEGTNTSGASECESVSDKAPSPATLPATSSSLPSPATPSHGSPSSHGPPATHPTSPTPPSTASGATTAANGGSLNCLQTPSSTSRGRKMTVNGAPVPPLT | binds | binds | binds |  |  |  | binds |
| FBRS (protein, UniProt Q9HAH7 1-460) MFEKYPGKMEGLFRHNPYTAFPPAVPGLPPGLPPAVSFGSLQGAFQPKSTNPELPPRLGPVPSGLSQKGTQIPDHFRPPLRKPGKWCAMHVRVAYMILRHQEKMKGDSHKLDFRNDLLPCLPGPYGALPPGQELSHPASLFTATGAVHAAANPFTAAPGAHGPFLSPSTHIDPFGRPTSFASLAALSNGAFGGLGSPTFNSGAVFAQKESPGAPPAFASPPDPWGRLHRSPLTFPAWVRPPEAARTPGSDKERPVERREPSITKEEKDRDLPFSRPQLRVSPATPKARAGEEGPRPTKESVRVKEERKEEAAAAAAAAAAAAAAAAAAATGPQGLHLLFERPRPPPFLGPSPPDRCAGFLEPTWLAAPPRLARPPRFYEAGEELTGPGAVAAARLYGLEPAHPLLYSRLAPPPPPAAAPGTPHLLSKTPPGALLGAPPPLVPAPRPSSPPRGPGPARADR | binds | binds | binds | binds | binds | binds | binds |

Continued, values first:

| binding [1] | binding [2] | binding [3] | binding [4] | binding [5] | binding [6] | binding [7] | Binder |
| --- | --- | --- | --- | --- | --- | --- | --- |
| binds | binds | no binding |  |  |  |  | RYBP (protein, UniProt Q8N488 1-228) MTMGDKKSPTRPKRQAKPAADEGFWDCSVCTFRNSAEAFKCSICDVRKGTSTRKPRINSQLVAQQVAQQYATPPPPKKEKKEKVEKQDKEKPEKDKEISPSVTKKNTNKKTKPKSDILKDPPSEANSIQSANATTKTSETNHTSRPRLKNVDRSTAQQLAVTVGNVTVIITDFKEKTRSSSTSSSTVTSSAGSEQQNQSSSGSESTDKGSSRSSTPKGDMSAVNDESF |
|  |  |  | binds |  |  |  | SWAHA (protein, UniProt Q2M3V2 18-549) AVLGFLQEHGGKVRNSELLSRFKPLLDAGDPRGRAARRDRFKQFVNNVAVVKELDGVKFVVLRKKPRPPEPEPAPFGPPGAAAQPSKPTSTVLPRSASAPGAPPLVRVPRPVEPPGDLGLPTEPQDTPGGPASEPAQPPGERSADPPLPALELAQATERPSADAAPPPRAPSEAASPCSDPPDAEPGPGAAKGPPQQKPCMLPVRCVPAPATLRLRAEEPGLRRQLSEEPSPRSSPLLLRRLSVEESGLGLGLGPGRSPHLRRLSRAGPRLLSPDAEELPAAPPPSAVPLEPSEHEWLVRTAGGRWTHQLHGLLLRDRGLAAKRDFMSGFTALHWAAKSGDGEMALQLVEVARRSGAPVDVNARSHGGYTPLHLAALHGHEDAAVLLVVRLGAQVHVRDHSGRRAYQYLRPGSSYALRRLLGDPGLRGTTEPDATGGGSGSLAARRPVQVAATILSSTTSAFLGVLADDLMLQDLARGLKKSSSFSKFLSASPMAPRKKTKIRGGLPAFSEISRRPTPGPLAGLVPSLPPTT |
|  |  |  | binds |  |  |  | SWAHC (protein, UniProt Q53LP3 1-525) MEGPAEWGPEAALGPEAVLRFLAERGGRALHAELVQHFRGALGGEPEQRARARAHFKELVNAVATVRVDPADGAKYVHLKKRFCEGPSEPSGDPPRIQVTAEPEAPDGPAGPEARDRLPDAAAPESLPGQGRELGEGEPPAPAHWPPLSAGARRKNSRRDVQPLPRTPAPGPSEDLELPPHGCEEADRGSSLVGATAQRPARQNLRDLVMGSSPQLKRSVCPGGSSPGSSSGGGRGRGGGDSDSASVASSSAEEESSGGGSVTLDPLEHAWMLSASDGKWDSLEGLLTCEPGLLVKRDFITGFTCLHWAAKHGRQELLAMLVNFANKHQLPVNIDARTSGGYTALHLAAMHGHVEVVKLLVGAYDADVDIRDYSGKKASQYLSRSIAEEIKNLVGALDEGDGESAAGSGGGRWRLSKVLPSHLITYKLSHALEDGGDHHHHHHSAEGWVGGKAKDPGRKASGSSSGRIKPRLNKIRFRTQIVHTTPSFRDPEQPLEGRGEEGVGEERPVKGHSPFTLRPKSNVFG |
| binds | binds |  |  |  |  |  | YAF2 (protein, UniProt Q8IY57 1-180) MGDKKSPTRPKRQPKPSSDEGYWDCSVCTFRNSAEAFKCMMCDVRKGTSTRKPRPVSQLVAQQVTQQFVPPTQSKKEKKDKVEKEKSEKETTSKKNSHKKTRPRLKNVDRSSAQHLEVTVGDLTVIITDFKEKTKSPPASSAASADQHSQSGSSSDNTERGMSRSSSPRGEASSLNGESH |

No constants are given. Whether binding was seen depends on the method and setting. In cells and extracts the contact can be indirect. Here binding means that the protein was enriched with, or labelled near, the bait; the list need not be complete. For some of these results: No binding means not detected with the bait.
